Reference: patent publication US11912699B2, “Tau-protein targeting compounds and associated” (Arvinas Operations, Inc., priority 2019, dated 2024)
Some results were stated once for a whole list of compounds, not compound by compound.

Protein sequences, listed by entry. Tags and fused reporters are not part of them. Residues count along the entry.
UniProt P10636, 1-383 isoform P10636-6 P243L: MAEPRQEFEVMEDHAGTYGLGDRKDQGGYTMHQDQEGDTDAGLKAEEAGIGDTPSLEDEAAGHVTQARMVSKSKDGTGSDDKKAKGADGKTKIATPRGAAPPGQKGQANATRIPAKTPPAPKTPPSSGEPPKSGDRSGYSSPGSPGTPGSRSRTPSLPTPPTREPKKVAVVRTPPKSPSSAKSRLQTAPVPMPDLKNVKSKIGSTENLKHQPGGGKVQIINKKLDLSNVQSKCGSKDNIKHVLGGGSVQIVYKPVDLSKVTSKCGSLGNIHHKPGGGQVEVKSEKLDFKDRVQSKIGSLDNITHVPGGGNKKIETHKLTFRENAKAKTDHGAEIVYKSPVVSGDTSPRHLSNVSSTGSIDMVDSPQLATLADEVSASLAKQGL

Columns and labels:
[1] = biological target: T1, pathologic tau (Homo sapiens, UniProt P10636, P618L); experiment: Pathologic tau in Tg2508 brain after intravenous dosing, measured by Wes capillary gel electrophoresis; type: in vivo, Tg2508 tauopathy mice; conditions: 24 h post dose, cortical brain samples, Tg2508 mice, vs vehicle
T1 construct: tissue Taconic; host or cells: cortex / hippocampus of Tg2508 transgenic mice, sarkosyl-insoluble fraction or brain extract
Protocol: (§1) FIGS. 3A and 3B. Exemplary bifunctional compounds degrade greater than 95% of pathologic tau in Tg2508 brain following parenteral administration in vivo. Tg2508 tauopathy mice were dosed (12 animals per group) with either 15 mpk exemplary compound 82 or 30 mpk exemplary compound 382 or vehicle intravenously. Twenty-four hours post dose, the animals were sacrificed, and cortical brain samples were analyzed for pathologic tau by Wes capillary gel electrophoresis. FIG. 3A is a graphical representation of the averaged analysis of pathologic tau shown for each animal tested comparing lanes from the vehicle control to either exemplary compound 82 or exemplary compound 382 as indicated in FIG. 3B. Greater than 95% reduction of pathologic tau was observed following treatment of the Tg2508 animals with either exemplary compound 82 or exemplary compound 382.
FIG. 5. […] Tg2508 animals were dosed with either 15, 3, 1 or 0.3 mpk of bifunctional compound 382 intravenously, as described in materials and methods. Hippocampal extracts were analyzed for either pathologic tau levels by Wes or bifunctional compound levels at each given dose as shown.

[2] = biological target: T1, pathologic tau; experiment: In vivo tau degradation assay in Tg2508 tauopathy mice (sarkosyl insoluble tau, Wes); conditions: 24 hours post dose
Protocol: as §1, with “3B.” for “3B. Exemplary bifunctional compounds degrade greater than 95% of pathologic tau in Tg2508 brain following parenteral administration in vivo.”, “parenterally, as described below (Lewis et al., 2000).” for “intravenously.”, “sacrificed” for “sacrificed,”
FIG. 5. Tg2508 animals were dosed with either 15, 3, 1 or 0.3 mpk of bifunctional compound exemplary compound 382 parenterally, as described in materials and methods. Hippocampal extracts were analyzed for either pathologic tau levels by Wes or bifunctional compound levels at each given dose as shown.
In vivo tau Degradation Assay for FIGS. 3A, 3B and 5. […] Hetero-bifunctional degrader molecule concentrations were determined using standand liquid chromatography and mass spectroscopy methodologies (Drumetix).

Row | SMILES | reduction of pathologic tau ([1]; 15 mpk intravenous) | reduction of pathologic tau in cortical brain samples ([2]; 15 mpk parenterally) | reduction of pathologic tau ([1]; 30 mpk intravenous) | reduction of pathologic tau in cortical brain samples ([2]; 30 mpk parenterally)
1 | Cn1c2ccncc2c2ccc(-c3ccc(O[C@H]4C[C@H](OC5CCN(CCCCCOc6ccc7c(c6)C(=O)N(C6CCC(=O)NC6=O)C7=O)CC5)C4)nc3)cc21 (stereo partly shown) [Compound 82] | greater than 95% | Greater than 95% |  | 
2 | Cn1c2ccncc2c2ccc(-c3ccc(N4CC(OC5CCN(CCCCCOc6ccc7c(c6)C(=O)N(C6CCC(=O)NC6=O)C7=O)CC5)C4)nc3)cc21 (stereo not shown) [Compound 382, 2-(2,6-dioxopiperidin-3-yl)-5-((5-(4-((1-(5-(5-methyl-5H-pyrido[4,3-b]indol-7-yl)pyridin-2-yl)azetidin-3-yl)oxy)piperidin-1-yl)pentyl)oxy) isoindoline-1,3-dione] |  |  | greater than 95% | Greater than 95%
